Test results: patent US4294841A, “Derivatives of 1-phenyl 3-(4-piperidyl) 1-propanone usable as drugs” (Pharmindustrie, priority 1978, dated 1981)

Target: receptors for benzodiazepines in the brain membranes (3H-diazepam binding site)
Experiment: displacement of 3H-diazepam from its binding sites (method of H. Mohler et al.)
Design: species or system rat
Details: constant used to calculate Ki; read-out: constant of affinity KD of 3H-diazepam
Excerpt: The anxiolytic activity of the benzodiazepines is well known. The presence of specific receptors for benzodiazepines in the brain membranes of the rat has also been well established (Squires et al. Nature 266, 732, (1977)) and a good correlation exists between the degree of affinity of benzodiazepines for the receiving binding sites and the pharmacodynamic effects observed in the animal and in man.
The results of Table II have been obtained by testing the products according to the method of H. Mohler et al., Life Sciences 20, 2101 (1977).

## CN1C(=O)CN=C(c2ccccc2)c2cc(Cl)ccc21 [^3 H-diazepam, reference compound]
  Kd: 2740 nM
